# Data from patent US20260284208A1, “SYSTEM” (Oxford University Innovation Limited, priority 2023, published 2026).
# Further values from the same series stand in other lists.
# Tested on: library of 8,380 IKZF3 degrons (ZF-eGFP/mCherry reporter) in Jurkat cells
# Assay: Pooled library screen (FACS, NGS, limma voom LogFC of positive vs negative read counts)
# Type: cell-based, human
# Protocol: A library of 8,380 IKZF3 degrons was cloned into pLVX-Sprout to create the eGFP/mCherry protein degradation reporter plasmid pool. A lentivirus pool was then generated using the Lenti-X lentiviral vector production method.
# Jurkat cells were transduced at a multiplicity of infection of <0.3 with the lentivirus vector library in order to maximise the number of cells with a single integration. Transductions were carried out in 6 well TC-treated cell culture dishes (Falcon) with 3×10^6 cells per well. Cells were incubated for 2 days at 37° C. and 5% CO2 before the supernatant was removed and replaced with fresh media. 6 days post-transduction, mCherry+ cells were isolated via FACS using the FACS Aria Fusion (BD) in a buffer containing PBS (Gibco), 2 mM EDTA (Gibco), 25 mM HEPES (Sigma) and 1% BSA (Sigma). 8 days later, cells were treated with DMSO or a thalidomide analog for 18 hours at 37° C. and 5% CO2. mCherry+GFPlow and NOT(mCherry+GFPlow) cells were sorted by FACS using the FACS Aria Fusion (BD). DMSO treated cells were used to set the mCherry+GFPlow gate and dead cells were excluded from sorting by staining cells with 1 μg/mL DAPI (ThermoFisher). gDNA was isolated using the Maxwell RSC 48 (Promega). gDNA from cells that were unsorted and untreated were also isolated to determine the library representation on the day of compound treatment. Throughout the screen >600× coverage of the library was maintained. 3 biological replicates were carried out with a new transduction taking place each time.
# A two-step PCR was used where the first PCR (PCR1) amplified the integrated degron sequence from gDNA and the second PCR (PCR2) added Illumina adaptors and barcodes to permit multiplexing. See Supp F for PCR1 and PCR2 primers. Q5 Hot Start High-Fidelity 2× Master Mix (New England Biolabs) was used for both PCRs. Sufficient gDNA was amplified in PCR1 in order to maintain >600× coverage and amplicons were purified using solid phase reversible immobilization (SPRI) beads (Beckman Coulter). Purified PCR1 products were analysed on the Tapestation 4200 (Agilent) to confirm purity prior to proceeding to PCR2. Sufficient PCR1 product was amplified in PCR2 in order to maintain >600× coverage and amplicons were run on a 2% agarose TAE gel. Target bands were excised and purified using the NucleoSpin Gel and PCR Clean-up Kit (Machery Nagel). Amplicons were analysed on the Tapestation 4200 and quantified using Qubit dsDNA HS kit (ThermoFisher). PCR products were pooled and sequenced as paired-reads on the NovaSeq (Illumina) using a SP2 200 cycles kit (Illumina).
# Count distributions, percentage of read mapping, library coverage and replicate correlation per sample were assessed for QC purposes.
# To carry out the library screen, we used the same plasmid construct as in our earlier flow cytometry assays, but pooling all 8,380 mutants together into one Jurkat population, ensuring a copy number of one plasmid per cell (FIG. 4B). […] These GFP-negative cells were then separated from the remaining GFP-positive population using fluorescence activated cell sorting (FACS). These two populations were then sequenced and the relative abundance of every mutant in both populations compared to provide a log FC value for each mutant sequence. This value indicated how frequently a sequence is observed in the GFP-negative population relative to the GFP-positive population, and therefore how effective a degron it is for that particular IMID compound.
smiles,measurement,setting,value
O=C1CCC(N2C(=O)c3ccc(N4CCOCC4)cc3C2=O)C(=O)N1 (stereo not shown) [B03],B03_logFC,"Degron-ID 7691, SEQ ID NO 4305, 46L_47F_49E_50I_52G_53F_54N_55C_67L_",2.211
same,B03_logFC,"Degron-ID 7720, SEQ ID NO 4351, 46L_47H_49E_50I_52G_53F_54A_55C_67L_",2.119
same,B03_logFC,"Degron-ID 7733, SEQ ID NO 4266, 46L_47H_49E_50I_52G_53F_54Q_55C_67L_",2.266
same,B03_logFC,"Degron-ID 7735, SEQ ID NO 3724, 46L_47H_49E_50I_52G_53F_54S_55C_67L_",3.16
same,B03_logFC,"Degron-ID 7736, SEQ ID NO 3845, 46L_47H_49E_50I_52G_53F_54T_55C_67L",2.93
same,B03_logFC,"Degron-ID 7740, SEQ ID NO 4291, 46L_47I_49E_50I_52G_53F_54A_55C_67L_",2.237
same,B03_logFC,"Degron-ID 7753, SEQ ID NO 4248, 46L_47I_49E_50I_52G_53F_54Q_55C_67L_",2.3
same,B03_logFC,"Degron-ID 7754, SEQ ID NO 4268, 46L_47I_49E_50I_52G_53F_54R_55C_67L_",2.264
same,B03_logFC,"Degron-ID 7755, SEQ ID NO 3793, 46L_47I_49E_50I_52G_53F_54S_55C_67L_",3.024
same,B03_logFC,"Degron-ID 7756, SEQ ID NO 4289, 46L_47I_49E_50I_52G_53F_54T_55C_67L_",2.238
same,B03_logFC,"Degron-ID 7815, SEQ ID NO 4345, 46L_47M_49E_50I_52G_53F_54S_55C_67L_",2.135
same,B03_logFC,"Degron-ID 7880, SEQ ID NO 4393, 46L_47S_49E_50I_52G_53F_54A_55C_67L_",2.047
same,B03_logFC,"Degron-ID 7896, SEQ ID NO 3891, 46L_47S_49E_50I_52G_53F_54T_55C_67L",2.866
same,B03_logFC,"Degron-ID 7914, SEQ ID NO 4360, 46L_47T_49E_50I_52G_53F_54R_55C_67L_",2.102
same,B03_logFC,"Degron-ID 7915, SEQ ID NO 3700, 46L_47T_49E_50I_52G_53F_54S_55C_67L_",3.216
same,B03_logFC,"Degron-ID 7916, SEQ ID NO 3874, 46L_47T_49E_50I_52G_53F_54T_55C_67L",2.891
same,B03_logFC,"Degron-ID 7935, SEQ ID NO 3758, 46L_47V_49E_50I_52G_53F_54S_55C_67L_",3.113
same,B03_logFC,"Degron-ID 7940, SEQ ID NO 3694, 46L_47W_49E_50I_52G_53F_54A_55C_67L_",3.236
same,B03_logFC,"Degron-ID 7941, SEQ ID NO 3664, 46L_47W_49E_50I_52G_53F_54C_55C_67L_",3.308
same,B03_logFC,"Degron-ID 7948, SEQ ID NO 3688, 46L_47W_49E_50I_52G_53F_54K_55C_67L_",3.248
same,B03_logFC,"Degron-ID 7950, SEQ ID NO 3706, 46L_47W_49E_50I_52G_53F_54M_55C_67L_",3.202
same,B03_logFC,"Degron-ID 7957, SEQ ID NO 3719, 46L_47W_49E_50I_52G_53F_54V_55C_67L_",3.17
same,B03_logFC,"Degron-ID 7961, SEQ ID NO 3678, 46L_47Y_49E_50I_52G_53F_54C_55C_67L_",3.282
same,B03_logFC,"Degron-ID 7963, SEQ ID NO 4327, 46L_47Y_49E_50I_52G_53F_54E_55C_67L_",2.158
same,B03_logFC,"Degron-ID 7965, SEQ ID NO 4331, 46L_47Y_49E_50I_52G_53F_54G_55C_67L_",2.155
same,B03_logFC,"Degron-ID 7967, SEQ ID NO 3685, 46L_47Y_49E_50I_52G_53F_54I_55C_67L_",3.256
same,B03_logFC,"Degron-ID 7968, SEQ ID NO 3728, 46L_47Y_49E_50I_52G_53F_54K_55C_67L_",3.157
same,B03_logFC,"Degron-ID 7970, SEQ ID NO 3682, 46L_47Y_49E_50I_52G_53F_54M_55C_67L_",3.269
same,B03_logFC,"Degron-ID 7977, SEQ ID NO 3671, 46L_47Y_49E_50I_52G_53F_54V_55C_67L_",3.292
same,B03_logFC,degron 1020 (SEQ ID NO 3523) 46F_47F_49E_50I_52G_53A_54A_55F_67L,3.645
same,B03_logFC,degron 1021 (SEQ ID NO 3469) 46F_47F_49E_50I_52G_53A_54C_55F_67L,3.835
same,B03_logFC,degron 1027 (SEQ ID NO 3539) 46F_47F_49E_50I_52G_53A_54I_55F_67L,3.607
same,B03_logFC,degron 1028 (SEQ ID NO 3519) 46F_47F_49E_50I_52G_53A_54K_55F_67L,3.654
same,B03_logFC,degron 1031 (SEQ ID NO 3529) 46F_47F_49E_50I_52G_53A_54N_55F_67L,3.628
same,B03_logFC,degron 1033 (SEQ ID NO 3511) 46F_47F_49E_50I_52G_53A_54Q_55F_67L,3.67
same,B03_logFC,degron 1034 (SEQ ID NO 3515) 46F_47F_49E_50I_52G_53A_54R_55F_67L,3.661
same,B03_logFC,degron 1035 (SEQ ID NO 3492) 46F_47F_49E_50I_52G_53A_54S_55F_67L,3.722
same,B03_logFC,degron 1036 (SEQ ID NO 3474) 46F_47F_49E_50I_52G_53A_54T_55F_67L,3.804
same,B03_logFC,degron 1037 (SEQ ID NO 3486) 46F_47F_49E_50I_52G_53A_54V_55F_67L,3.757
same,B03_logFC,degron 1060 (SEQ ID NO 3635) 46F_47F_49E_50V_52G_53A_54A_55F_67L,3.389
same,B03_logFC,degron 1061 (SEQ ID NO 3578) 46F_47F_49E_50V_52G_53A_54C_55F_67L,3.514
same,B03_logFC,degron 1068 (SEQ ID NO 3628) 46F_47F_49E_50V_52G_53A_54K_55F_67L,3.418
same,B03_logFC,degron 1071 (SEQ ID NO 3613) 46F_47F_49E_50V_52G_53A_54N_55F_67L,3.445
